No constants are given. Whether binding was seen depends on the method and setting. In cells and extracts the contact can be indirect. Some results given as binding are weak or reduced against the parent protein; the word gives no strength.
Target: T1, sorcin, endogenous in 3T3-L1 fibroblasts (mouse (endogenous in 3T3-L1)) (UniProt Q6P069)
T1 sequence: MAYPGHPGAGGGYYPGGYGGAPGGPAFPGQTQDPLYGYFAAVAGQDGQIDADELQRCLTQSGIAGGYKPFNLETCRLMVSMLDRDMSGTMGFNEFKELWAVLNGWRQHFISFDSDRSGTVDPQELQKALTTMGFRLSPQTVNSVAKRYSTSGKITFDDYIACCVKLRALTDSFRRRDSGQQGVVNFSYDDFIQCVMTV
Assay: co-IP; 3T3-L1 fibroblast lysate in buffer A (20 mM HEPES pH 7.4, 0.25 M sucrose, 1 mM EDTA) with 1% Nonidet P-40; 3 h at 4°C with rabbit α-sorcin or rabbit α-PLK1, protein G-Sepharose; western blot

Chains of the proteins cited; added tags and fusions are not shown.
UniProt Q07832: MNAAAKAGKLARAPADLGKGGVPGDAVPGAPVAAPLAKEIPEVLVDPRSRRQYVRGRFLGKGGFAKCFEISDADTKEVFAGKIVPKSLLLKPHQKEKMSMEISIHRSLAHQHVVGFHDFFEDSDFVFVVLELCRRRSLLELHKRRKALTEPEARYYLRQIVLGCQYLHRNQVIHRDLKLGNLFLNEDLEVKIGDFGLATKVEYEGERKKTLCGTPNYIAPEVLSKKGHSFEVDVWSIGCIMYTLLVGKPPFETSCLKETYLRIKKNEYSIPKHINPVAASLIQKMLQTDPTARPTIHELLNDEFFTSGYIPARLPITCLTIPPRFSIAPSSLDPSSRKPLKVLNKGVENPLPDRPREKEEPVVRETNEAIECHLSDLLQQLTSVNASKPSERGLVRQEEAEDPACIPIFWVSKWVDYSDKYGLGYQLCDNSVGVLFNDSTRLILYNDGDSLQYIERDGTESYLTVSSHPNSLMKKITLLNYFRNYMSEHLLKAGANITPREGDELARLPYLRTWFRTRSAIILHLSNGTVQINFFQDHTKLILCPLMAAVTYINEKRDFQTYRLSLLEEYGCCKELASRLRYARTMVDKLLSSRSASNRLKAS

Substance: Polo-like kinase 1 (PLK1), endogenous in 3T3-L1 fibroblasts (from UniProt Q07832 1-603) (enzyme)
- binding: binds
